Measurements published in the supplement of paper PMC12889115.
The list shows a part of the results. Values are raw readings; no control value is given beside them.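 First-pass screen: polymyxin B was added at a level that permeabilizes the Salmonella outer membrane while sparing the inner membrane. DMSO wells, with and without polymyxin B, defined maximum growth. Because plates differed from one another, each plate's data were ranked separately and the compounds with the lowest OD600 were carried forward as hits.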

System: Salmonella enterica serovar Typhimurium SL1344
Test: bacterial growth OD600 after 18 h with compound and polymyxin B; higher = more bacterial growth (less inhibition)
Details: 50 µM, Mueller-Hinton broth

**Q.** For `O=C1N(c2ccccc2)C[C@@H]2C[C@@H](c3ccc(C#CCCO)cc3)N3CCC[C@@]123`, which “bacterial growth OD600” value (polymyxin B 0.75 µg/mL) is on record?
**A.** 0.87

**Q.** How did the “bacterial growth OD600” value (polymyxin B 0.75 µg/mL) turn out when `O=C1CCC(CCC(=O)N2CCCC(OCc3ccccc3)C2)(Cc2cccs2)N1` (stereo unspecified) was run?
**A.** 1.01

**Q.** `O=C(NC1CC(=O)N(CCCc2ccccc2)C1)c1cscn1` (stereo unspecified) was tested. Which “bacterial growth OD600” value (polymyxin B 1 µg/mL) did it give?
**A.** 0.919

**Q.** How did the “bacterial growth OD600” value (polymyxin B 1 µg/mL) turn out when `Cc1nc2ccccc2n1Cc1cc(C(=O)N(C)CC2CCCN2C)no1` (stereo unspecified) was run?
**A.** 1.1

**Q.** How did the “bacterial growth OD600” value (polymyxin B 1 µg/mL) turn out when `CCOC(=O)C1(Cc2ccccc2)CCCN(Cc2ncc[nH]2)C1` (stereo unspecified) was run?
**A.** 1.24

**Q.** Which “bacterial growth OD600” value (polymyxin B 0.75 µg/mL) does the source give for `O=C(CCC1(Cc2ccc(F)cc2)CCC(=O)N1)NCc1ccsc1` (stereo unspecified) here?
**A.** 0.814

**Q.** Which “bacterial growth OD600” value (polymyxin B 0.75 µg/mL) does the source give for `CN(CCc1ccccc1)C(=O)c1nc2sccn2c1CN1CCN(CC2CC2)CC1` here?
**A.** 0.816

**Q.** With `CC(=O)c1ccc(C(=O)N2CCCC(CCC(=O)Nc3ccc(F)cc3C)C2)s1` (stereo unspecified) as the molecule, how does the “bacterial growth OD600” value (polymyxin B 1 µg/mL) read?
**A.** 0.961

**Q.** With `O=C(Nc1ccc(Oc2ccccc2)nc1)C1CCN(C(=O)[C@@H]2C[C@@H]3C=C[C@H]2C3)CC1` as the molecule, how does the “bacterial growth OD600” value (polymyxin B 1 µg/mL) read?
**A.** 0.956

**Q.** For `C#CCN(CC=C)Cc1nc(-c2ccc(F)c(OC)c2)oc1C`, which “bacterial growth OD600” value (polymyxin B 1 µg/mL) is on record?
**A.** 0.82

**Q.** Which “bacterial growth OD600” value (polymyxin B 1 µg/mL) does the source give for `COC(=O)c1ccc(-c2noc(CN3CCC(C(O)Cc4ccccc4)CC3)n2)cc1` (stereo unspecified) here?
**A.** 0.801

**Q.** `CCC(C)C(=O)C(=O)NCC1Cc2cc(-c3ccnc(SC)n3)cc(Cl)c2O1` (stereo unspecified) was tested. Which “bacterial growth OD600” value (polymyxin B 0.75 µg/mL) did it give?
**A.** 0.563

**Q.** For `COc1cc(OC)c(CN2CCCC(C(=O)c3cccc(Cl)c3)C2)c(OC)c1` (stereo unspecified), which “bacterial growth OD600” value (polymyxin B 1 µg/mL) is on record?
**A.** 0.002

**Q.** How did the “bacterial growth OD600” value (polymyxin B 1 µg/mL) turn out when `CC(=O)N1CCC(C(=O)N2CCCC(Nc3ccccc3)C2)CC1` (stereo unspecified) was run?
**A.** 0.899

**Q.** For `CC(=O)NCc1cccnc1N1CCN(c2ccccc2C)CC1`, which “bacterial growth OD600” value (polymyxin B 1 µg/mL) is on record?
**A.** 0.664

**Q.** How did the “bacterial growth OD600” value (polymyxin B 0.75 µg/mL) turn out when `COC(=O)c1cc(CNC(=O)Cc2cc(OC)ccc2OC)cc(NC(=O)Cc2ccccc2)c1` was run?
**A.** 0.912

**Q.** How did the “bacterial growth OD600” value (polymyxin B 1 µg/mL) turn out when `COc1ccc(CCN2CC(C(=O)NCc3cc(C)on3)CCC2=O)cc1` (stereo unspecified) was run?
**A.** 0.867

**Q.** How did the “bacterial growth OD600” value (polymyxin B 0.75 µg/mL) turn out when `CCOC(=O)C1(Cc2ccc(F)cc2)CCCN(C(=O)c2ccc(C)nc2O)C1` (stereo unspecified) was run?
**A.** 0.885

**Q.** `COc1cccc(CCNC(=O)c2ccc(OC3CCN(C(=O)C4CC4)CC3)cc2)c1` was tested. Which “bacterial growth OD600” value (polymyxin B 1 µg/mL) did it give?
**A.** 1.05

**Q.** `Cc1oc(-c2ccccc2NC(=O)c2ccccn2)nc1CNC(=O)CCc1nc2ccccc2s1` was tested. Which “bacterial growth OD600” value (polymyxin B 0.75 µg/mL) did it give?
**A.** 0.822

**Q.** How did the “bacterial growth OD600” value (polymyxin B 1 µg/mL) turn out when `CC(C)c1noc(-c2ccc(NCCN3CCOC3=O)nc2)n1` was run?
**A.** 1.01
